These are yes or no findings as the source states them, for the method shown. In cells and extracts the contact can be indirect. A yes stands for co-enrichment or nearness to the bait. Other partners may have been found.

By UniProt entry, the sequences of proteins in these tests, tags left out.
UniProt Q921E6: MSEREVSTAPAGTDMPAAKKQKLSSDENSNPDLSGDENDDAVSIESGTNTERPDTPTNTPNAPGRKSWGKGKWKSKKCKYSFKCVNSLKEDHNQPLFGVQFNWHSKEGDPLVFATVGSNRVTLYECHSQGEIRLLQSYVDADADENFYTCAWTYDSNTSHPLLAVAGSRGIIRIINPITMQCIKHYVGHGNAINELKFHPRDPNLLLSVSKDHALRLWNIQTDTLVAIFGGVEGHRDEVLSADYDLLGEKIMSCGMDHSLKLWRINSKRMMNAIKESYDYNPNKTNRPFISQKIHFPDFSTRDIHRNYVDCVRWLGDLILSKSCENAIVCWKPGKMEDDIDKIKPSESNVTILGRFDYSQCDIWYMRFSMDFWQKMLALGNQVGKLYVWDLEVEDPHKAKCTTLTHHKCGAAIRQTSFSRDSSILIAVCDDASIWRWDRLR
UniProt Q02395: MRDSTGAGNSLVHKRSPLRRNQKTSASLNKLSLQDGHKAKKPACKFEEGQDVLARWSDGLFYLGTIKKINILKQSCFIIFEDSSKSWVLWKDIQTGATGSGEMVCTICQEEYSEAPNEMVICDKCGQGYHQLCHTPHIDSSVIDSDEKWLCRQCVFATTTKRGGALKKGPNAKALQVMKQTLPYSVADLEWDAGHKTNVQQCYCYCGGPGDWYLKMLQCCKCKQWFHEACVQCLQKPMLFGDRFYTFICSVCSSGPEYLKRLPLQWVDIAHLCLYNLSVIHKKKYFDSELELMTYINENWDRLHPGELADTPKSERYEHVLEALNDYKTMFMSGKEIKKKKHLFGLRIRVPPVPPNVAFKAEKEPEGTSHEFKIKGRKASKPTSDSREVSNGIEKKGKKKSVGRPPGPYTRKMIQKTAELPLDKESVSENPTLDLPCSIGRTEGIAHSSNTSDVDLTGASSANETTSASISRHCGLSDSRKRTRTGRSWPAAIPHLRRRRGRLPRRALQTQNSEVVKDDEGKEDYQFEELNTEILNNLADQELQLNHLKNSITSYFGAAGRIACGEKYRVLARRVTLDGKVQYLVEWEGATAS

In assay [1] the target is embryonic ectoderm development (EED) (mouse (endogenous in TSCs and ESCs)) (UniProt Q921E6). As to the kind of experiment: affinity purification with mass spectrometry; EED IP from WT TSC whole-cell lysates, compared with Eed KO TSCs; Pierce MS-Compatible Magnetic IP Kit, on-bead tryptic digest, LC-MS/MS (Q-Exactive HF), MaxQuant.
The target is the same in assay [2]. As to the kind of experiment: affinity purification with mass spectrometry; EED IP from WT ESC whole-cell lysates against an IgG control; Evosep One with timsTOF SCP, DIA-PASEF, Dia-NN; t-test with Benjamini-Hochberg correction.

As to MTF2 (from UniProt Q02395 1-593), the binding entry in assay [1] and in assay [2] was “binds” in each case.

(Values after article PMC10104784.)
